Test results from the RepoRT retention time repository.

Test: HILIC, Waters ACQUITY UPLC BEH Amide, 100 × 2.1 mm, 1.7 µm; A: water + 0.125% formic acid + 10 mM ammonium formate; B: 5% water + 95% acetonitrile + 0.125% formic acid + 10 mM ammonium formate; gradient (min/%B) 0/100 2/100 7.7/70 9.5/40 10.25/30 12.75/100 17/100
Conditions: stereoisomer not certain

Compound `Cc1c(C(=O)NN2CCCCC2)nn(-c2ccc(Cl)cc2Cl)c1-c1ccc(I)cc1` [AM-251] has an LC retention time of 0.97 min.
Work on `Cc1cccc(CCN2CCC(C(=O)c3ccc(NS(C)(=O)=O)cc3)CC2)n1` [E-4031] yielded an LC retention time of 2.92 min.
